Paper PMC6347614
No constants are given. Whether binding was seen depends on the method and setting. Binding seen in cells or lysates may run through a third protein. Some entries that bind do so weakly or less than the wild type.

The chains behind the UniProt entries cited, without tags or fusion partners.
UniProt Q9H0J4: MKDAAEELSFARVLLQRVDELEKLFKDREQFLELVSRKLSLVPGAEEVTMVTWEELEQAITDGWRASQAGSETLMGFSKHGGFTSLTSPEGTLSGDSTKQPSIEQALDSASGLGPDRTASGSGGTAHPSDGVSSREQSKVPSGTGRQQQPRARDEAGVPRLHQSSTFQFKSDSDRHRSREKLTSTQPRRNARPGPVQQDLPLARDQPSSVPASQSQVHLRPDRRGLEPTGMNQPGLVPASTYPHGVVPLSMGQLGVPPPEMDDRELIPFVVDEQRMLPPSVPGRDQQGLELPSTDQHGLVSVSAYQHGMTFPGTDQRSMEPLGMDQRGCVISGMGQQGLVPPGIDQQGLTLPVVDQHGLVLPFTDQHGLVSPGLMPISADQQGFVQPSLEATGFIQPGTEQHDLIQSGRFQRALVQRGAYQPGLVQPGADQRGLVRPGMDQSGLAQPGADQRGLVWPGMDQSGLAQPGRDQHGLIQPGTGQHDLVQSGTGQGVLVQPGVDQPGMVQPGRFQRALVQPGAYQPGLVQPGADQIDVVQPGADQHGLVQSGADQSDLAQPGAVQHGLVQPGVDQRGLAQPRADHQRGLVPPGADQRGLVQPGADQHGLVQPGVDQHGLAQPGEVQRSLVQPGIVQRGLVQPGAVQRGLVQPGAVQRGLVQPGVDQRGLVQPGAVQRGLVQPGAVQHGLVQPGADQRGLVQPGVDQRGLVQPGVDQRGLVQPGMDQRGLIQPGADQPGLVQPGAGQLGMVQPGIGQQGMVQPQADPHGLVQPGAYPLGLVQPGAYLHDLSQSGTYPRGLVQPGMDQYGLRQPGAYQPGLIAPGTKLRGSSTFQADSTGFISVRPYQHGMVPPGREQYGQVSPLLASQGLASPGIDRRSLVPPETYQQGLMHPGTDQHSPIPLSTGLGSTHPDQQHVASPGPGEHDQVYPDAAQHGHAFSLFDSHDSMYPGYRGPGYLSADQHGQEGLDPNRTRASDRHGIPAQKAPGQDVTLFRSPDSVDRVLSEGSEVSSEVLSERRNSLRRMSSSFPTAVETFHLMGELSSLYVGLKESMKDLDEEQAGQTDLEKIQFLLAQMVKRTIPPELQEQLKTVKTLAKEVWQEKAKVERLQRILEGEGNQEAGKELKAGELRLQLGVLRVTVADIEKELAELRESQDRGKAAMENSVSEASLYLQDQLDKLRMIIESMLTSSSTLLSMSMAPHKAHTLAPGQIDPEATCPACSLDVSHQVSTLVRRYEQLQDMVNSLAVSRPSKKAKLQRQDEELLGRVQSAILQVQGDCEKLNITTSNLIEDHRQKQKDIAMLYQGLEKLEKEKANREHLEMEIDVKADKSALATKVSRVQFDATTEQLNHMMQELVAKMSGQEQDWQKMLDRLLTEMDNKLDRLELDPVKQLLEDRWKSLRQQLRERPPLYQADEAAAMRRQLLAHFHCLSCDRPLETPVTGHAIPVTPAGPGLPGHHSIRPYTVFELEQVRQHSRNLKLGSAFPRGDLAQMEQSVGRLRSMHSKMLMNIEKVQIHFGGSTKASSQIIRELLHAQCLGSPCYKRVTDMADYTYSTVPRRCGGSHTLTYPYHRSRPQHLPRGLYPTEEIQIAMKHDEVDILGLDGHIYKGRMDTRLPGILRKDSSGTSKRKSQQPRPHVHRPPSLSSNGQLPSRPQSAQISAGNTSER
UniProt O75969: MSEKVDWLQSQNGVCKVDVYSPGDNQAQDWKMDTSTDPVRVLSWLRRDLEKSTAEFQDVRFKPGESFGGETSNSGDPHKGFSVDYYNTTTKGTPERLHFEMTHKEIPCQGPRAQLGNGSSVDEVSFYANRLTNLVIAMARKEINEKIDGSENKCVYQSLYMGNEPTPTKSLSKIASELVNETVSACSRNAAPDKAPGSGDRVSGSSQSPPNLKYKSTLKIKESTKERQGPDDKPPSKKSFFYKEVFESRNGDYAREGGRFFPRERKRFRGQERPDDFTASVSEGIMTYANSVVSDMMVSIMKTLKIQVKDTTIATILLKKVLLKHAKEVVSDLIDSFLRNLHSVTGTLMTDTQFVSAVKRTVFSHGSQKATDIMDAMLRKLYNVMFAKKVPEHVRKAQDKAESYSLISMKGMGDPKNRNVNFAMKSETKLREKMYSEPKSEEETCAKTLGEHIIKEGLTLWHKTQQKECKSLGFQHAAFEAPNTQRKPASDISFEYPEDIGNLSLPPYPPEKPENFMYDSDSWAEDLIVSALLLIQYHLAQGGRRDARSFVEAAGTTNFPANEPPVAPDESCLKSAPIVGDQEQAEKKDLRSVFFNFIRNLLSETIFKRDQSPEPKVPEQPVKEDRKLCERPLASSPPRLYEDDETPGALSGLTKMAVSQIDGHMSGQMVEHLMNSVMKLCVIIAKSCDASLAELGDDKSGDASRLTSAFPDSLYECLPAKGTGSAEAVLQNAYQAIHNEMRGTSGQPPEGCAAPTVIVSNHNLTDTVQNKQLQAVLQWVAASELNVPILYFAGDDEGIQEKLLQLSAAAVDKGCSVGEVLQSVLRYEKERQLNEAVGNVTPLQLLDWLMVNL
UniProt Q9ESG2: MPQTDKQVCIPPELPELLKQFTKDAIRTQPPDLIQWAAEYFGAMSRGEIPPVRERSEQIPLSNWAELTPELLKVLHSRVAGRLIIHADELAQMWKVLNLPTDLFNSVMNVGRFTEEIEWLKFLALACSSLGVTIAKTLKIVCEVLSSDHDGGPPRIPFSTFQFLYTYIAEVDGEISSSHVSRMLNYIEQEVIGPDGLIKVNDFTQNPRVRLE

T1: Akap3 (mouse (endogenous in testes)) (UniProt O88987)
T1 sequence: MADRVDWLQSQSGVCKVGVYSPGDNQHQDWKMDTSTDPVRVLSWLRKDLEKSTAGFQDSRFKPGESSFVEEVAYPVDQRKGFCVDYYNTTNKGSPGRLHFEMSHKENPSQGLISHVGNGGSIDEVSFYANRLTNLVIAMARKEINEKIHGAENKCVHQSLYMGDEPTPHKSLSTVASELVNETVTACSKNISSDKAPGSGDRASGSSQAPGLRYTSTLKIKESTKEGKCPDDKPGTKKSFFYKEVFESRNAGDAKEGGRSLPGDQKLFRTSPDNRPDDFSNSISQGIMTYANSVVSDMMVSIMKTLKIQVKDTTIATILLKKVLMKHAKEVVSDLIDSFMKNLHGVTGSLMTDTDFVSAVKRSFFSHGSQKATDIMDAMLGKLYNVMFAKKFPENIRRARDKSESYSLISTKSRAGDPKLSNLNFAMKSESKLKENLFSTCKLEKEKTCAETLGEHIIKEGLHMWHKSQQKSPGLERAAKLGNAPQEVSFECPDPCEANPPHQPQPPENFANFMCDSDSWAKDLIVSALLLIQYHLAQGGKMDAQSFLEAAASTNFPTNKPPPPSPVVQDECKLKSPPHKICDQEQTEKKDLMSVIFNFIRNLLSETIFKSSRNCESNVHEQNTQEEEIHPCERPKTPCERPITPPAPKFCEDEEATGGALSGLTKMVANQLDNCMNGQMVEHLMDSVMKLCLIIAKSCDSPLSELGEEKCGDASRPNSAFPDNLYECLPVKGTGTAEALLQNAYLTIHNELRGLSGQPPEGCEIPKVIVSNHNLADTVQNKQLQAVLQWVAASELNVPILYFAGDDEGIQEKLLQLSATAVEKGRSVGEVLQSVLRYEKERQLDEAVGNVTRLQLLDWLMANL


Key:
[1] = biological target: glutamine rich 2 (QRICH2) (human) (UniProt Q9H0J4); assay: co-IP; exogenous Co-IP in HEK 293 cells; extracts incubated with 3 µg of antibody overnight at 4 °C, Protein A/G magnetic beads, washed three times with 1× PBS, immunoblot; the precipitated partner is not stated
[2] = biological target: T1, Akap3 (mouse (endogenous in testes)); assay: co-IP; endogenous proteins in testes of WT and Qrich2-KO mice; extracts incubated with 3 µg of antibody overnight at 4 °C, Protein A/G magnetic beads, washed three times with 1× PBS, immunoblot

| binding [1] | binding [2] | Molecule |
| --- | --- | --- |
| binds | – | A-kinase anchoring protein (AKAP3) (from UniProt O75969 1-853) |
| – | binds | Ropn1 (from UniProt Q9ESG2 1-212) |
| – | binds | Cabyr (protein, UniProt Q9D424 1-453) MISSKPRLVVPYGLKTLLEGVSRAILKTNPTNITQFAAVYFKELIVFREGNSSLDIKDLIKQFHQMKVEKWAEGVTVEKKECIKEPIKPPPVPCKPTHMEKSTDTEEDNVAGPLFSNKTTQFPSVHAEVQSEETSEGARGPSDKPTTPKTDYTPPSSPPPAPVSAEYAYVPADPAQFAAQMLGNVPSTYSEVLMVDVATSTPAVPQDVLSAEFAEEVVLSAPLVCSGETVEVQVVSKTSAQVVVGPVSEAEPPKASSAPLQGEQEPPAHEAPDTQVTSASRISSIYNDVPVNEGVVYVEEIPGYIVIPFTDHDQVACVKEIEQSPPGSPKAVEPKTKISIESLKTVQVEENSQHKSSVHVEAEATVLLSNTALDGQPEVPAEPLDAEGFFKVASENSLHLETEIVIINPDDPGQEESGGNAAPHSSGDPFPPAPGGLTEPEMQPDGEAAPEQV |
| binds | – | outer dense fiber of sperm tails 2 (ODF2) (protein, UniProt Q5BJF6 1-829) MSASSSGGSPRFPSCGKNGVTSLTQKKVLRAPCGAPSVTVTKSHKRGMKGDTVNVRRSVRVKTKVPWMPPGKSSARPVGCKWENPPHCLEITPPSSEKLVSVMRLSDLSTEDDDSGHCKMNRYDKKIDSLMNAVGCLKSEVKMQKGERQMAKRFLEERKEELEEVAHELAETEHENTVLRHNIERMKEEKDFTILQKKHLQQEKECLMSKLVEAEMDGAAAAKQVMALKDTIGKLKTEKQMTCTDINTLTRQKELLLQKLSTFEETNRTLRDLLREQHCKEDSERLMEQQGALLKRLAEADSEKARLLLLLQDKDKEVEELLQEIQCEKAQAKTASELSKSMESMRGHLQAQLRSKEAENSRLCMQIKNLERSGNQHKAEVEAIMEQLKELKQKGDRDKESLKKAIRAQKERAEKSEEYAEQLHVQLADKDLYVAEALSTLESWRSRYNQVVKEKGDLELEIIVLNDRVTDLVNQQQTLEEKMREDRDSLVERLHRQTAEYSAFKLENERLKASFAPMEDKLNQAHLEVQQLKASVKNYEGMIDNYKSQVMKTRLEADEVAAQLERCDKENKILKDEMNKEIEAARRQFQSQLADLQQLPDILKITEAKLAECQDQLQGYERKNIDLTAIISDLRSRIEHQGDKLEMAREKHQASQKENKQLSLKVDELERKLEATSAQNIEFLQVIAKREEAIHQSQLRLEEKTRECGTLARQLESAIEDARRQVEQTKEHALSKERAAQNKILDLETQLSRTKTELSQLRRSRDDADRRYQSRLQDLKDRLEQSESTNRSMQNYVQFLKSSYANVFGDGPYSTFLTSSPIRSRSPPA |
| binds | – | testis specific serine kinase 4 (TSSK4) (protein, UniProt Q6SA08 1-328) MGKGDVLEAAPTTTAYHSLMDEYGYEVGKAIGHGSYGSVYEAFYTKQKVMVAVKIISKKKASDDYLNKFLPREIQVMKVLRHKYLINFYRAIESTSRVYIILELAQGGDVLEWIQRYGACSEPLAGKWFSQLTLGIAYLHSKSIVHRDLKLENLLLDKWENVKISDFGFAKMVPSNQPVGCSPSYRQVNCFSHLSQTYCGSFAYACPEILRGLPYNPFLSDTWSMGVILYTLVVAHLPFDDTNLKKLLRETQKEVTFPANHTISQECKNLILQMLRQATKRATILDIIKDSWVLKFQPEQPTHEIRLLEAMCQLHNTTKQHQSLQITT |
